The record followed here is article PMC11017495.

The experiment deals with T1, Flag-tagged DExH-box helicase 58 (DHX58) (UniProt Q99J87).
T1 sequence: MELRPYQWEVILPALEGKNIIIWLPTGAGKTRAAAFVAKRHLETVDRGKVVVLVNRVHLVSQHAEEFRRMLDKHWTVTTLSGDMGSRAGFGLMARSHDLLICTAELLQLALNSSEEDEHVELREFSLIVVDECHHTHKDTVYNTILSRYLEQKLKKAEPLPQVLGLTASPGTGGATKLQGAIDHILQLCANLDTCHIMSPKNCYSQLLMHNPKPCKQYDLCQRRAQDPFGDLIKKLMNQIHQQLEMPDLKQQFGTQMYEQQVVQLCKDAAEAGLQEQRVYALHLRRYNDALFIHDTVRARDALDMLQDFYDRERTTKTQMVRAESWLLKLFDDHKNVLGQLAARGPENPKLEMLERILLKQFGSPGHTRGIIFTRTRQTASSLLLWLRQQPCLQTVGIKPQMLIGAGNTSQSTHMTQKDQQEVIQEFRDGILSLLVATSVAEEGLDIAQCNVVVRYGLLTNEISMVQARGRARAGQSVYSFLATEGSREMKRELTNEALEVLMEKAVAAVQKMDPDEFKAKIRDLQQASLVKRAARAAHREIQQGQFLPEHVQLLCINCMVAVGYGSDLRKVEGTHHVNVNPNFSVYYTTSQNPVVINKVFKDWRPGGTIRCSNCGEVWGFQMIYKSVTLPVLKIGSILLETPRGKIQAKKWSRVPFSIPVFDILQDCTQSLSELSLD
In words: affinity purification with mass spectrometry; immunoprecipitation of Flag-tagged DHX58 from the lysates of transfected hepatocytes; MS of the associated proteins.

Results are given in words; binding and its absence hold for the method and conditions named. Binding seen in cells or lysates may run through a third protein. These calls come from enrichment with a bait or labelling near it, and not all partners need be listed. Where a sequence is shown, tags or fusion partners need not be part of it.

B1: YT521-B homology domain containing 2 (YTHDC2), found with Flag-DHX58 in transfected hepatocytes (protein, UniProt B2RR83 1-1445)
chain: MSRPSSVSPRPPAPSGGGTGGGGGGSGGGGGGGGGGPASCGPGGGGRAKGLKDIRIDEEVKIAVNIALERFRYGDQREMEFPSSLTSTERAFIHRLSQSLGLVSKSKGKGANRYLTVKKKDGSETAHAMMTCNLTHNTKHAVRSLIQRFPVTNKERTELLPKTERGNVFAVEAENREMSKTSGRLNNGIPQVPVKRGESEFDSFRQSLPVFEKQEEIVKIIKENKVVLIVGETGSGKTTQIPQFLLDDCFKNGIPCRIFCTQPRRLAAIAVAERVAAERRERIGQTIGYQIRLESRVSPKTLLTFCTNGVLLRTLMAGDSTLSTVTHVIVDEVHERDRFSDFLLTKLRDLLQKHPTLKLILSSAALDVNLFIRYFGSCPVIYIQGRPFEVKEMFLEDILRTTGYTNKEMLKYKKEKQREEKQQTTLTEWYSAQENTFKPESQRQRAVASVSEEYDLLDDGGDAVFSQLTEKDVNCLEPWLIKEMDACLSDIWLHKDVDAFAQVFHLILTENVSVDYRHSETSATALMVAAGRGFTSQVEQLISMGANVHSKASNGWMALDWAKHFGQTEIVDLLESYSASLEFGNLDESSLVQTNGNDLSAEDRELLKAYHHSFDDEKVDLDLIMHLLYNICHSCDAGAILIFLPGYDEIVGLRDRILFDDKRFADNTHRYQVFMLHSNMQTSDQKKVLKNPPAGVRKIILSTNIAETSITVNDVVFVIDSGKVKEKSFDALNFVTMLKMVWISKASAIQRKGRAGRCRPGICFRLFSRLRFQNMLEFQTPELLRMPLQELCLHTKLLAPVNCTIADFLMKAPEPPPALIVRNAVQMLKTIDAMDAWEDLTELGYHLADLPVEPHLGKMVLCAVVLKCLDPILTIACTLAYRDPFVLPTQASQKRAAMLCRKRFTAGTFSDHMALLRAFQAWQKARSDGWERAFCEKNFLSQATMEIIIGMRTQLLGQLRASGFVRARGGGDIRDVNTNSENWAVVKAALVAGMYPNLVHVDRENVILTGPKEKKVRFHPTSVLSQPQYKKIPPANGQAAAIQALPTDWLIYDEMTRAHRIANIRCCSAVTPVTVLVFCGPARLASNALQEPSSFRADGIPNDSSDSEMEDRTTANLAALKLDEWLNFKLEPEAASLLLQLRQKWHSLFLRRMRAPSKPWSQVDEATIRAIIAVLSTEEQSAGLQQPSGIGQRPRPMSSEELPLASSWRSNNSRKSTADTEFADGSTTGERVLMKSPSPALHPPQKYKDRGILHPKRSTDDRSDQSSVKSTDSSSYPSPCASPSPPSSGKGSKSPSPRPNMPIRYFIMKSSNLRNLEISQQKGIWSTTPSNERKLNRAFWESSMVYLVFSVQGSGHFQGFSRMSSEIGREKSQDWGSAGLGGVFKVEWIRKESLPFQFAHHLLNPWNDNKKVQISRDGQELEPQVGEQLLQLWERLPLGEKTTSD
Consider B1, for which the binding entry was “binds”.
